Taken from: PubChem BioAssay AID504764 (Drosophila RNAi Screening Center, 2011)
The screen tested about 22,000 reagents; this is an unselected part of those that have a named target and a result. In the full data, 403 (1.9%) are marked active. 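Unnormalised raw counts per well; ratio z-scores behind the hit calls and whether each hit raises or lowers signal are not deposited.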 Unmarked entries are inactive. Names joined by + are all predicted targets of the reagent. Not given: the amount of reagent.

Screen: 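Genome-wide screen for regulators of Notch-driven gene expression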 (primary screen)
System: Drosophila Kc167 cells
Reagents: long dsRNA against Drosophila genes
Timing: about 5 days (4 days dsRNA, then 24 h after transfection)
Conditions: transfection of constitutively active membrane-tethered Notch lacking the extracellular domain, read 24 h later
Detection: 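Firefly luciferase from an E(spl)m3 reporter with active Notch, plus control-promoter and uninduced reporter wells for normalisation; unnormalised counts, duplicate wells a and b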
Reading the numbers: induced reporter light, run 1, well a and induced reporter light, run 1, well b: higher = more light from the Notch target reporter with active Notch; control promoter light, run 1, well a and control promoter light, run 1, well b: higher = more light from the viral control promoter (cell number, transfection, viability); uninduced reporter light, run 1, well a: higher = more light from the Notch target reporter without active Notch
Call rule: 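Hit if the duplicate-averaged log2 ratio of induced to control-promoter light gives a plate-wise z beyond ±2, or induced to uninduced beyond ±1.8; weak-control or discordant-duplicate wells dropped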
Meaning of the calls: active = modifier hit (raised or lowered Notch signal); inactive = not a hit

no.	predicted target	dsRNA	induced reporter light, run 1, well a	induced reporter light, run 1, well b	control promoter light, run 1, well a	control promoter light, run 1, well b	uninduced reporter light, run 1, well a
1	Traf-like (GeneID 32611)	DRSC19894	1.61e5	1.81e5	2.61e5	2.69e5	13680
2	VhaM9.7-a (GeneID 38521)	DRSC08289	1.34e5	1.48e5	3.03e5	1.69e5	11665
3	CG42354 + CG42353	DRSC20172	60575	41815	44995	33170	7392
4	CG18518 (GeneID 34932)	DRSC01509	64840	58295	65645	55130	7885
5	lambdaTry (GeneID 36214)	DRSC06137	1.26e5	1.21e5	1.92e5	1.24e5	10388
6	Dpy-30L2 (GeneID 38480)	DRSC08205	1.46e5	1.75e5	1.84e5	1.52e5	8370
7	Arp1 (GeneID 41566)	DRSC14118	20095	25930	31840	25975	1770
8	Nup43 (GeneID 42209)	DRSC16279	2.47e5	2.62e5	2.85e5	3.07e5	17495
9	if (GeneID 32661)	DRSC20341	1.11e5	90330	1.49e5	1.02e5	11895
10	CG13559 (GeneID 37720)	DRSC04197	1.46e5	1.30e5	1.30e5	1.38e5	8600
11	Cpn (GeneID 41474)	DRSC16613	1.16e5	1.04e5	67195	71960	8550
12	Nna1 (GeneID 32329)	DRSC19404	1.12e5	98350	1.24e5	1.57e5	7232
13	Vml (GeneID 5740271)	DRSC17695	62560	75610	88485	79690	5920
14	Vml (GeneID 5740271)	DRSC18529	1.03e5	1.09e5	1.74e5	1.92e5	8465
15	CG11000 (GeneID 40721)	DRSC12158	87335	1.12e5	87430	60355	7460
16	CG31997 (GeneID 319064)	DRSC17105	49865	69180	1.03e5	69060	6545
17	CG11741 (GeneID 5740784)	DRSC14367	88980	89470	84555	64945	7000
18	CG8349 (GeneID 34124)	DRSC03083	1.27e5	1.51e5	1.22e5	1.86e5	17255
19	Neos (GeneID 38795)	DRSC11235	1.05e5	93270	68375	43160	13725
20	Uro (GeneID 34060)	DRSC03469	1.58e5	1.97e5	1.43e5	1.30e5	26525
21	Rala (GeneID 31332)	DRSC18703	1.80e5	2.12e5	3.53e5	3.34e5	12600
22	COX7AL2 (GeneID 5740746)	DRSC00099	1.35e5	1.09e5	1.48e5	1.58e5	8765
23	CG33648 (GeneID 3772188)	DRSC01387	76790	79555	77580	73940	8110
24	Rac2 (GeneID 38831)	DRSC11262	1.80e5	1.39e5	1.82e5	1.70e5	7670

Targets listed so far whose target name begins with V or v (3):
predicted target	dsRNA	induced reporter light, run 1, well a	induced reporter light, run 1, well b	control promoter light, run 1, well a	control promoter light, run 1, well b	uninduced reporter light, run 1, well a
VhaM9.7-a (GeneID 38521)	DRSC08289	1.34e5	1.48e5	3.03e5	1.69e5	11665
Vml (GeneID 5740271)	DRSC17695	62560	75610	88485	79690	5920
Vml (GeneID 5740271)	DRSC18529	1.03e5	1.09e5	1.74e5	1.92e5	8465

Additional results follow:
no.	predicted target	dsRNA	induced reporter light, run 1, well a	induced reporter light, run 1, well b	control promoter light, run 1, well a	control promoter light, run 1, well b	uninduced reporter light, run 1, well a
25	Gr59e (GeneID 37725)	DRSC04276	2.13e5	2.22e5	2.44e5	2.03e5	17905
26	CG4829 (GeneID 32672)	DRSC19920	1.24e5	1.27e5	1.24e5	52205	11915
27	Pop2 (GeneID 39366)	DRSC10537	52000	45840	37910	14500	5195
28	CG31161 (GeneID 326123)	DRSC16144	1.37e5	1.73e5	2.28e5	2.16e5	12295
29	PIP5K59B (GeneID 37633)	DRSC04290	2.14e5	1.98e5	1.85e5	2.01e5	15670
30	PIP5K59B (GeneID 37633)	DRSC04403	2.08e5	1.66e5	1.60e5	1.55e5	14930
31	Fie (GeneID 38452)	DRSC08158	1.27e5	1.16e5	95910	35960	8725
32	Oatp33Eb (GeneID 34662)	DRSC02955	1.71e5	1.75e5	1.63e5	1.71e5	13770
33	GstD1 (GeneID 41503)	DRSC16683	88485	79290	78235	59025	5170
34	Ufsp2 (GeneID 39687)	DRSC10231	1.52e5	1.56e5	81965	88030	9855
35	Alp11 (GeneID 32496)	DRSC20080	69810	73095	77470	64975	9595
36	CG5327 (GeneID 37138)	DRSC06930	1.05e5	96445	1.41e5	1.41e5	9230
37	CG42525 (GeneID 8674097)	DRSC08026	1.87e5	1.48e5	1.59e5	1.30e5	12525
38	FucTC (GeneID 3355171)	DRSC20966	1.84e5	2.35e5	2.78e5	2.98e5	18110
39	Hrd3 (GeneID 42806)	DRSC14156	1.89e5	1.95e5	2.31e5	2.36e5	15150
40	Arp2 (GeneID 32623)	DRSC19332	30965	30915	25560	29665	2250
41	alphaTub84D (GeneID 40904)	DRSC12623	17905	19690	18495	17710	1825
42	CG42675 (GeneID 40722)	DRSC12157	1.49e5	1.12e5	1.01e5	73130	9595
43	CG13380 + CG4174	DRSC09988	1.22e5	1.06e5	61690	66950	9730
44	CG13380 + CG4174	DRSC10406	1.47e5	1.87e5	2.45e5	2.11e5	9050
45	CG8065 (GeneID 39186)	DRSC10959	1.74e5	1.73e5	2.97e5	2.36e5	13215
46	CG14647 (GeneID 40558)	DRSC12233	1.19e5	85650	68620	78810	7890
47	Hcs (GeneID 40659)	DRSC12070	1.76e5	1.86e5	1.48e5	1.57e5	12900
48	Hcs (GeneID 40659)	DRSC12256	74940	70120	67955	47970	5800
49	Mgat4a (GeneID 39608)	DRSC09326	1.81e5	1.55e5	2.23e5	2.32e5	16455
50	Mgat4a (GeneID 39608)	DRSC11070	1.97e5	2.27e5	2.32e5	1.84e5	12655
